Results published in PMC2824034, “The indispensable N-terminal half of eIF3j/HCR1 co-operates with its structurally conserved binding partner eIF3b/PRT1-RRM and eIF1A in stringent AUG selection” (Journal of molecular biology, 2010).
These are yes or no findings as the source states them, for the method shown. For part of these data: Binding seen in cells or lysates may run through a third protein. Some entries that bind do so weakly or less than the wild type. For part of these data: Tags and fused reporters may be left off the sequences shown.

Amino acid sequences for entries named in this document (tags omitted). A change or cut given only in a name is not applied to a line headed by its entry. Residues count along the entry.
UniProt Q05775, residues 136-265: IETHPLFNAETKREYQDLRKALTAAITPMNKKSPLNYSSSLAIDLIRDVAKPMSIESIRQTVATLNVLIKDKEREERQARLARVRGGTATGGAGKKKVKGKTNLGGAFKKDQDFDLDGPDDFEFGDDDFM
UniProt O75822: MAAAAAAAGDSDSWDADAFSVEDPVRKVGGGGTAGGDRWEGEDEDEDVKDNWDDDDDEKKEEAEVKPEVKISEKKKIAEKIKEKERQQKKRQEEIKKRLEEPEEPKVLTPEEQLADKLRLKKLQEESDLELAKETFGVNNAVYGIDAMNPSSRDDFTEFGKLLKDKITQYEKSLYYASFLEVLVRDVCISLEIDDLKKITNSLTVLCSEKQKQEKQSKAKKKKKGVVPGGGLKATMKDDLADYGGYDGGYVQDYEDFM
UniProt P0CX29: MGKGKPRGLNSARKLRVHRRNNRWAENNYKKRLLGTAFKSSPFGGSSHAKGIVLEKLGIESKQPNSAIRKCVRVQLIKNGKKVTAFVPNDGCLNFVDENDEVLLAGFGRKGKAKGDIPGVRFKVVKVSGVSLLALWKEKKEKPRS

What was measured:
[1] = target: GST-j/hcr1-CTD [136-265] (S. cerevisiae) (UniProt Q05775); experiment: pull-down; GST fusions from E. coli immobilized on glutathione-Sepharose beads, incubated with 10 μl of in vitro-synthesized 35S-labeled partner at 4°C for 2 h; washed 3 times with phosphate-buffered saline; SDS-PAGE, autoradiography; only the target purified
GST-RPS2 (S. cerevisiae) = target: T1, GST-RPS2 (S. cerevisiae) (UniProt P25443); experiment: as above
T1 sequence: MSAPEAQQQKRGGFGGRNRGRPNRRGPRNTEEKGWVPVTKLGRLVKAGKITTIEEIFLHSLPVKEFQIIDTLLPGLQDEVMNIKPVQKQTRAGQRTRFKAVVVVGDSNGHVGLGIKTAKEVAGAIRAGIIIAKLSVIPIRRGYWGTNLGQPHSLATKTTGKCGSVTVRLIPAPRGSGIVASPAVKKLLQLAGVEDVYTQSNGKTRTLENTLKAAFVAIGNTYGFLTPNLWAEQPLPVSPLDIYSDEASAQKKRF

heIF3j-W52A = target: T2, heIF3j-W52A (human, UniProt O75822 1-258, W52A); experiment: ITC; VP-ITC; cell: 50 μM full-length heIF3j wt or mutant; syringe: 1 mM heIF3b-RRM; 20 mM Hepes pH 7.5, 200 mM NaCl, 25°C; both purified
T2 construct: human eIF3j, full length, W52A; source: E. coli BL21(DE3), purified (nickel-chelating column, TEV cleavage, second nickel column)

heIF3j-N51A-W52A = target: T3, heIF3j-N51A-W52A (human, UniProt O75822 1-258, N51A | W52A); experiment: as above
T3 construct: human eIF3j, full length, N51A and W52A; source: E. coli BL21(DE3), purified (nickel-chelating column, TEV cleavage, second nickel column)

heIF3j-D50K-D53K-D57K = target: T4, heIF3j-D50K-D53K-D57K (human, UniProt O75822 1-258, D50K | D53K | D57K); experiment: as above
T4 construct: human eIF3j, full length, D50K, D53K and D57K; source: E. coli BL21(DE3), purified (nickel-chelating column, TEV cleavage, second nickel column)

35S-labeled wt RPS23 (from UniProt P0CX29 1-145)
binding [1]: binds weakly

35S-labeled j/hcr1-CTD (from UniProt Q05775 136-265) (domain or fragment)
binding (GST-RPS2 (S. cerevisiae)): binds weakly

B1: 35S-labeled wt RPS2 (protein, UniProt P25443 1-254)
chain: MSAPEAQQQKRGGFGGRNRGRPNRRGPRNTEEKGWVPVTKLGRLVKAGKITTIEEIFLHSLPVKEFQIIDTLLPGLQDEVMNIKPVQKQTRAGQRTRFKAVVVVGDSNGHVGLGIKTAKEVAGAIRAGIIIAKLSVIPIRRGYWGTNLGQPHSLATKTTGKCGSVTVRLIPAPRGSGIVASPAVKKLLQLAGVEDVYTQSNGKTRTLENTLKAAFVAIGNTYGFLTPNLWAEQPLPVSPLDIYSDEASAQKKRF
binding [1]: binds weakly

B2: heIF3b-RRM_(170-274) (domain or fragment, human, UniProt P55884 170-274, looked up)
chain: GDVLKDRPQEADGIDSVIVVDNVPQVGPDRLEKLKNVIHKIFSKFGKITNDFYPEEDGKTKGYIFLEYASPAHAVDAVKNADGYKLDKQHTFRVNLFTDFDKYMT
notes: 13C/15N-labeled in some NMR samples; The limits are printed for the NMR complex; the ITC names only heIF3b-RRM; also called human eIF3b-RRM; heIF3b-RRM domain; source: E. coli BL21(DE3), purified (nickel-chelating column, TEV cleavage, second nickel column)
binding (heIF3j-W52A): no binding (tested: Kd values larger than 10 mM) | binding (heIF3j-N51A-W52A): no binding (tested: Kd values larger than 10 mM) | binding (heIF3j-D50K-D53K-D57K): no binding (tested: Kd values larger than 10 mM)
